Assay results reported in patent US20050048063A1.
These are yes or no findings as the source states them, for the method shown. Some binding calls cover weakened binding; strength is not graded here.

The chains behind the UniProt entries cited, without tags or fusion partners. Where a name states a change or a piece, a line headed by the entry shows the natural chain unless it says otherwise.
UniProt P02463: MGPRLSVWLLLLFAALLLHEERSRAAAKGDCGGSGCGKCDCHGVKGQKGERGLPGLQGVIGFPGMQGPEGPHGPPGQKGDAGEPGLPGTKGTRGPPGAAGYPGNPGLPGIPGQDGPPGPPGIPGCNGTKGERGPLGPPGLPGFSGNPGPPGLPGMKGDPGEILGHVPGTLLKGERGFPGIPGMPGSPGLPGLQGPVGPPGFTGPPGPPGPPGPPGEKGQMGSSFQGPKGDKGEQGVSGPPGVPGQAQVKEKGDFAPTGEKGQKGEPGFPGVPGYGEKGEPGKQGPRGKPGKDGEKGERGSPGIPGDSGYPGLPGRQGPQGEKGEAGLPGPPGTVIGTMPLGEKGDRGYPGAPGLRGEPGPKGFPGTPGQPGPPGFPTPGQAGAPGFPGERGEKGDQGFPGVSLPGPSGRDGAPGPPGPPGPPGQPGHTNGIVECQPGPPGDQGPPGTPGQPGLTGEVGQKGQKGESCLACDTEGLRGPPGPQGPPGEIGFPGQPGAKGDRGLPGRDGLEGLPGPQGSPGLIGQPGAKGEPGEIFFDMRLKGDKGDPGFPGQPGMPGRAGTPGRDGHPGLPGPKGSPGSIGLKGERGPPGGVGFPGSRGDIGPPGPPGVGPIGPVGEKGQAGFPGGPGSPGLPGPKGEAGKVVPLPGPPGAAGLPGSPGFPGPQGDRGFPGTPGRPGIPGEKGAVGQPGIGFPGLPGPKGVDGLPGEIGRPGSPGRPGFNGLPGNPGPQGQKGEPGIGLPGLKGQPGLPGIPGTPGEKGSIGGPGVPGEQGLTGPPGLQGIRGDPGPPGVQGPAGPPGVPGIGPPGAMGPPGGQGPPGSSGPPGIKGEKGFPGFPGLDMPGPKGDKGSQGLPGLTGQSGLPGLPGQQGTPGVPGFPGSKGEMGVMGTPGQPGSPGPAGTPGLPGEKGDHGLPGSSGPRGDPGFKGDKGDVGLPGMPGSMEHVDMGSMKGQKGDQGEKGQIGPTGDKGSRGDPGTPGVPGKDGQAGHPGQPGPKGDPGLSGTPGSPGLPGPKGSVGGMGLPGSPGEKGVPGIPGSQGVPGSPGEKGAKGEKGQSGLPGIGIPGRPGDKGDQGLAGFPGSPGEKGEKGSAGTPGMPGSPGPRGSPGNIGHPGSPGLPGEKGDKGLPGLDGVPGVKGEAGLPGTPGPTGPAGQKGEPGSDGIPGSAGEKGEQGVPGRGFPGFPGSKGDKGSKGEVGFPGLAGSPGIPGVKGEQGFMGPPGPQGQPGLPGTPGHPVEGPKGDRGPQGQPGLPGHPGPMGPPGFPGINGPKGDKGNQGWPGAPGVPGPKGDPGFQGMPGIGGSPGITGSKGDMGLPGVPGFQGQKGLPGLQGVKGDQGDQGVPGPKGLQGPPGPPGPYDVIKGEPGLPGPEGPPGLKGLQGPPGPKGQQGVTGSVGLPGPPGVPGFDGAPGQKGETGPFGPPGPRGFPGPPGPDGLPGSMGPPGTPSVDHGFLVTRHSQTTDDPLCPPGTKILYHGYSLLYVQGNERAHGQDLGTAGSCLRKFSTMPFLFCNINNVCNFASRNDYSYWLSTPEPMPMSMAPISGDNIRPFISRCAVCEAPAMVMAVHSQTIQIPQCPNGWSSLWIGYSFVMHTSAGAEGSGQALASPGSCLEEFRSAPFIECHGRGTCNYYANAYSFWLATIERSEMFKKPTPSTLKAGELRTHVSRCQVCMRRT
UniProt P02453: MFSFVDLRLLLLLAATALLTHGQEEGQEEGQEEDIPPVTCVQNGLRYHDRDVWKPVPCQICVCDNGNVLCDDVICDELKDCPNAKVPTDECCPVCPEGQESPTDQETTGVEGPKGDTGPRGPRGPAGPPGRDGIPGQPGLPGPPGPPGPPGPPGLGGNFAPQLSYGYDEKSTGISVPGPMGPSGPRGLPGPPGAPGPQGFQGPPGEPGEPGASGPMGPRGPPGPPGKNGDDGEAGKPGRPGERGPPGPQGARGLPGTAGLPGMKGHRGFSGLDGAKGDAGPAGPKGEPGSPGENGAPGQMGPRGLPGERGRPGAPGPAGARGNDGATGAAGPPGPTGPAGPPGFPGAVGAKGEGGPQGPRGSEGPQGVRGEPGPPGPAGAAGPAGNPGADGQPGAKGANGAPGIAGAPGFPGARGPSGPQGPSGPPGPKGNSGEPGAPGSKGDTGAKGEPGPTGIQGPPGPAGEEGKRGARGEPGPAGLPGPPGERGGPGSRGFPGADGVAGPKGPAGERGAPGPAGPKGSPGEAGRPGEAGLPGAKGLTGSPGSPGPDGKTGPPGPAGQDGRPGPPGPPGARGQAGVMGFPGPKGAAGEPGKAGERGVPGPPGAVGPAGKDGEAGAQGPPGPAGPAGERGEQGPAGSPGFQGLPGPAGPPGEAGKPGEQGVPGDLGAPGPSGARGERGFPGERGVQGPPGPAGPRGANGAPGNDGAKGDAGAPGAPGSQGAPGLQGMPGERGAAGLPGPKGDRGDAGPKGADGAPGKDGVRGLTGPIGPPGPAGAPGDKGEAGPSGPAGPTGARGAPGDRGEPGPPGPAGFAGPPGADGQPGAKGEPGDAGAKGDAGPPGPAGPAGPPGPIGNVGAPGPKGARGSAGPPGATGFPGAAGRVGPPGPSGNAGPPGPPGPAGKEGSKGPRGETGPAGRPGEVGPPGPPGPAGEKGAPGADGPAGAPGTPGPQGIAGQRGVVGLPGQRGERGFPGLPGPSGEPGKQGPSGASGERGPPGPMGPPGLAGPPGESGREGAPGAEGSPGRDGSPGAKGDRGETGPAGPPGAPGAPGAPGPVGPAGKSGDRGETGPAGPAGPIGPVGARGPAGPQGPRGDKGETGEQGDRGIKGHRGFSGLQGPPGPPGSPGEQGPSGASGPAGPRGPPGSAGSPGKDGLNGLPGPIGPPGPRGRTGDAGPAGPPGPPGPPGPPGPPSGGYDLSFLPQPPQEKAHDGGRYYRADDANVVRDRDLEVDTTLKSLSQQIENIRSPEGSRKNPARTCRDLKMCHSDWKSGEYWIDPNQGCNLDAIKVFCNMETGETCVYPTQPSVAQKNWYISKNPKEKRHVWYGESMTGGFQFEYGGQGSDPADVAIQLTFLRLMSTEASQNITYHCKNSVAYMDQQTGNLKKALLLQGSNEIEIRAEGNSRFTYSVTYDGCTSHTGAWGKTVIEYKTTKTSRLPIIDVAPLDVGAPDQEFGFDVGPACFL
UniProt P02465: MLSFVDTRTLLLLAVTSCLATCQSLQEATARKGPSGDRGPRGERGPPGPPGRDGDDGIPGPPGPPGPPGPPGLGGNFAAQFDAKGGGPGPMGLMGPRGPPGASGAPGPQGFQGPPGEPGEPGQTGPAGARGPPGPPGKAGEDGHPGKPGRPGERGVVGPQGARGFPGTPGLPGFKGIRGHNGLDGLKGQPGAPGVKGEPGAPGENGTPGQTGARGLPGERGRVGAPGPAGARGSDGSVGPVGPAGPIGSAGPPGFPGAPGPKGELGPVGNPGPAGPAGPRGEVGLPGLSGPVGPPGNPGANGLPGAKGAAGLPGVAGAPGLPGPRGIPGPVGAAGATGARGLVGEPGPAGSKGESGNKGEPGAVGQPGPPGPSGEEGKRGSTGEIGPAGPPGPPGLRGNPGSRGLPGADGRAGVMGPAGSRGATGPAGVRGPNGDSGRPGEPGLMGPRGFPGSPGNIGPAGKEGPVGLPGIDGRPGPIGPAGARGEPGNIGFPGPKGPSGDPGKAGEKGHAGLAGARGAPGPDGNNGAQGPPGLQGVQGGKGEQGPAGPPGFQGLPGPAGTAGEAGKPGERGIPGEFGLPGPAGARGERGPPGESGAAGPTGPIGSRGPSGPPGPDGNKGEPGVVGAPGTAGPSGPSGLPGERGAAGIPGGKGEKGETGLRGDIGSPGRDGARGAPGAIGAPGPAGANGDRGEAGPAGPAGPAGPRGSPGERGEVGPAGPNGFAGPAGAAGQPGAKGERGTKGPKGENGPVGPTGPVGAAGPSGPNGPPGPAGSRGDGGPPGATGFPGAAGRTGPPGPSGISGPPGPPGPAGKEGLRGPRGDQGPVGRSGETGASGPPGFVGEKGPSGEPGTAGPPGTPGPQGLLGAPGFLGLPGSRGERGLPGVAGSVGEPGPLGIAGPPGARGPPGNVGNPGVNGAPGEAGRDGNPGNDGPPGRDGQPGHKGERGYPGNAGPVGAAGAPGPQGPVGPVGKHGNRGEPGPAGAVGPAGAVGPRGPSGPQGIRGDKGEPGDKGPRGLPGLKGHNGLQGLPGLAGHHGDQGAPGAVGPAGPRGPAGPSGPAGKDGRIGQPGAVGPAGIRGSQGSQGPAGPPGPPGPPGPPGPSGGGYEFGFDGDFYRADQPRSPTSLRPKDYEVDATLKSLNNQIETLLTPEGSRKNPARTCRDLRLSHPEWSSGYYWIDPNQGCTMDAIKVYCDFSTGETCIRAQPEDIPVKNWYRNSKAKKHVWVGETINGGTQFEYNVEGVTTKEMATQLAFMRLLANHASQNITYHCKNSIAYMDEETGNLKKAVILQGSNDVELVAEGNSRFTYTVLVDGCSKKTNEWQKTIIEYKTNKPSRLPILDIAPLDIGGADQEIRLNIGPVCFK

Experiments:
[1] = target: collagen IV from Engelbreth Holm Swarm tumors (Sigma), native or boiled (UniProt P02463); test: phage binding to collagen-coated surface
[2] = target: T1, collagen I from calf skin (Sigma), native or boiled (calf) (UniProt P02453+P02465); test: phage binding to collagen-coated surface
[3] = target: collagen IV from Engelbreth Holm Swarm tumors (Sigma), native or boiled (UniProt P02463); test: phage binding to boiled (denatured) against native collagen on ELISA plate, pfu recovered
[4] = target: T1, collagen I from calf skin (Sigma), native or boiled (calf); test: as above
[5] = target: collagen IV from Engelbreth Holm Swarm tumors (Sigma), native or boiled (UniProt P02463); test: phage binding to boiled (denatured) against native collagen
[6] = target: T1, collagen I from calf skin (Sigma), native or boiled (calf); test: as above
[7] = target: collagen IV from Engelbreth Holm Swarm tumors (Sigma), native or boiled (UniProt P02463); test: phage binding to collagen-coated ELISA plate, pfu recovered
[8] = target: T1, collagen I from calf skin (Sigma), native or boiled (calf); test: as above

Measured: binding

B1: CREKA (SEQ ID NO: 1)-displaying phage (peptide, not shown: large carriers)
chain: CREKA
binds: all assays above
